{"source": "PubChem BioAssay AID1224830 (NIAID, 2016)", "aim": "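Host factors that control LPS-induced TNF expression in human macrophages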 (primary screen)", "cells": "human THP-1 monocytic leukaemia cells, TNF dual-luciferase reporter clone, PMA-differentiated to macrophage-like cells", "reagents": "siRNA pool against human genes, 50 nM", "duration": "LPS for 4 h, given about 3 days after siRNA transfection", "conditions": "bacterial LPS (TLR4 ligand), 10 ng/ml", "detection": "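TNF firefly reporter luminescence divided by renilla, normalised to the plate median, then turned into a robust z-score for each replicate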", "scale": "TNF reporter robust z-score: higher = stronger TNF reporter response to LPS", "rule for the call": "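Each well counts as active if its z-score is over 2.8 or under -1.5; controls are left without a call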", "note": "This is one part, drawn at random, of about 18,000 reagents. About 2,900 of them (16%) were called active. 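Calls are made per well; low scores hint the gene aids the LPS response, high scores that it dampens it.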 Repeated entries: four replicate wells of each siRNA pool. No sequences are given here."}
{"target":"GRP (gastrin releasing peptide)","TNF reporter robust z-score":-0.41,"outcome":"inactive"}
{"target":"GRP (gastrin releasing peptide)","TNF reporter robust z-score":-0.63,"outcome":"inactive"}
{"target":"GRP (gastrin releasing peptide)","TNF reporter robust z-score":0.31,"outcome":"inactive"}
{"target":"GRP (gastrin releasing peptide)","TNF reporter robust z-score":-0.49,"outcome":"inactive"}
{"target":"NLRP12 (NLR family pyrin domain containing 12)","TNF reporter robust z-score":-1.32,"outcome":"inactive"}
{"target":"NLRP12 (NLR family pyrin domain containing 12)","TNF reporter robust z-score":-1.15,"outcome":"inactive"}
{"target":"NLRP12 (NLR family pyrin domain containing 12)","TNF reporter robust z-score":-1.01,"outcome":"inactive"}
{"target":"NLRP12 (NLR family pyrin domain containing 12)","TNF reporter robust z-score":1.21,"outcome":"inactive"}
{"target":"RPAP2 (RNA polymerase II associated protein 2)","TNF reporter robust z-score":-1.59,"outcome":"active"}
{"target":"RPAP2 (RNA polymerase II associated protein 2)","TNF reporter robust z-score":-1.67,"outcome":"active"}
{"target":"RPAP2 (RNA polymerase II associated protein 2)","TNF reporter robust z-score":-0.94,"outcome":"inactive"}
{"target":"RPAP2 (RNA polymerase II associated protein 2)","TNF reporter robust z-score":-0.97,"outcome":"inactive"}
{"target":"KRTAP4-7 (keratin associated protein 4-7)","TNF reporter robust z-score":13.4,"outcome":"active"}
{"target":"KRTAP4-7 (keratin associated protein 4-7)","TNF reporter robust z-score":1.58,"outcome":"inactive"}
{"target":"KRTAP4-7 (keratin associated protein 4-7)","TNF reporter robust z-score":0.18,"outcome":"inactive"}
{"target":"KRTAP4-7 (keratin associated protein 4-7)","TNF reporter robust z-score":1.48,"outcome":"inactive"}
{"target":"ZNF765 (zinc finger protein 765)","TNF reporter robust z-score":0,"outcome":"inactive"}
{"target":"ZNF765 (zinc finger protein 765)","TNF reporter robust z-score":-0.36,"outcome":"inactive"}
{"target":"ZNF765 (zinc finger protein 765)","TNF reporter robust z-score":-0.15,"outcome":"inactive"}
{"target":"ZNF765 (zinc finger protein 765)","TNF reporter robust z-score":-0.61,"outcome":"inactive"}
{"target":"TTC23L (tetratricopeptide repeat domain 23 like)","TNF reporter robust z-score":-0.77,"outcome":"inactive"}
{"target":"TTC23L (tetratricopeptide repeat domain 23 like)","TNF reporter robust z-score":-1.24,"outcome":"inactive"}
{"target":"TTC23L (tetratricopeptide repeat domain 23 like)","TNF reporter robust z-score":-0.25,"outcome":"inactive"}
{"target":"TTC23L (tetratricopeptide repeat domain 23 like)","TNF reporter robust z-score":-0.53,"outcome":"inactive"}
{"target":"CWC22 (CWC22 spliceosome associated protein)","TNF reporter robust z-score":-1.53,"outcome":"active"}
{"target":"CWC22 (CWC22 spliceosome associated protein)","TNF reporter robust z-score":0.43,"outcome":"inactive"}
{"target":"CWC22 (CWC22 spliceosome associated protein)","TNF reporter robust z-score":0,"outcome":"inactive"}
{"target":"CWC22 (CWC22 spliceosome associated protein)","TNF reporter robust z-score":-0.37,"outcome":"inactive"}
{"target":"ETV3L (ETS variant transcription factor 3 like)","TNF reporter robust z-score":-0.9,"outcome":"inactive"}
{"target":"ETV3L (ETS variant transcription factor 3 like)","TNF reporter robust z-score":-1.15,"outcome":"inactive"}
{"target":"ETV3L (ETS variant transcription factor 3 like)","TNF reporter robust z-score":-1.23,"outcome":"inactive"}
{"target":"ETV3L (ETS variant transcription factor 3 like)","TNF reporter robust z-score":-0.47,"outcome":"inactive"}
{"target":"SLC8A3","TNF reporter robust z-score":2.95,"outcome":"active"}
{"target":"SLC8A3","TNF reporter robust z-score":2.51,"outcome":"inactive"}
{"target":"SLC8A3","TNF reporter robust z-score":1.72,"outcome":"inactive"}
{"target":"SLC8A3","TNF reporter robust z-score":1.13,"outcome":"inactive"}
{"target":"ANKS6 (ankyrin repeat and sterile alpha motif domain containing 6)","TNF reporter robust z-score":0.37,"outcome":"inactive"}
{"target":"ANKS6 (ankyrin repeat and sterile alpha motif domain containing 6)","TNF reporter robust z-score":0.71,"outcome":"inactive"}
{"target":"ANKS6 (ankyrin repeat and sterile alpha motif domain containing 6)","TNF reporter robust z-score":-0.16,"outcome":"inactive"}
{"target":"ANKS6 (ankyrin repeat and sterile alpha motif domain containing 6)","TNF reporter robust z-score":0.19,"outcome":"inactive"}
{"target":"TPPP (tubulin polymerization promoting protein)","TNF reporter robust z-score":0.4,"outcome":"inactive"}
{"target":"TPPP (tubulin polymerization promoting protein)","TNF reporter robust z-score":-0.84,"outcome":"inactive"}
{"target":"TPPP (tubulin polymerization promoting protein)","TNF reporter robust z-score":-0.55,"outcome":"inactive"}
{"target":"TPPP (tubulin polymerization promoting protein)","TNF reporter robust z-score":-0.44,"outcome":"inactive"}
{"target":"GPX1 (glutathione peroxidase 1)","TNF reporter robust z-score":-0.63,"outcome":"inactive"}
{"target":"GPX1 (glutathione peroxidase 1)","TNF reporter robust z-score":-1.52,"outcome":"active"}
{"target":"GPX1 (glutathione peroxidase 1)","TNF reporter robust z-score":-0.57,"outcome":"inactive"}
{"target":"GPX1 (glutathione peroxidase 1)","TNF reporter robust z-score":-0.7,"outcome":"inactive"}
